Laboratory results reported in the supplement of paper PMC10849652.
The list shows a part of the results. Residues, ends and D or L forms follow the SMILES beside them. *: point of attachment. Cbz = O=C(OCc1ccccc1)*

By UniProt entry, the sequences of proteins in these tests, tags left out. Where a name states a change or a piece, a line headed by the entry shows the natural chain unless it says otherwise.
UniProt Q6P1K1: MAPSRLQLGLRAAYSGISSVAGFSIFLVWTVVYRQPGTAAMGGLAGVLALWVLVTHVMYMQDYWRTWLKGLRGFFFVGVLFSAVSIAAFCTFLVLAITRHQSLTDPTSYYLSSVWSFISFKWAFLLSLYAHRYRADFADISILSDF
UniProt Q96A46: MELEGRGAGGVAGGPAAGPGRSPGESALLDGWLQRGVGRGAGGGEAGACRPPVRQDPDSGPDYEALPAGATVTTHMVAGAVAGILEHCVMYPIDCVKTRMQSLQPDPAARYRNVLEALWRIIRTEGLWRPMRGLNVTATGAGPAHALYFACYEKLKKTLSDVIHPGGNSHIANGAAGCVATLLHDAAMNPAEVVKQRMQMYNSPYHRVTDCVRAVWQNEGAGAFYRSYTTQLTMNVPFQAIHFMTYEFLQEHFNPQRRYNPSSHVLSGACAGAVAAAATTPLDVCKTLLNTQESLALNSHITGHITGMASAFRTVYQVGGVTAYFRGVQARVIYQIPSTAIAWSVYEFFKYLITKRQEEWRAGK
UniProt P09131: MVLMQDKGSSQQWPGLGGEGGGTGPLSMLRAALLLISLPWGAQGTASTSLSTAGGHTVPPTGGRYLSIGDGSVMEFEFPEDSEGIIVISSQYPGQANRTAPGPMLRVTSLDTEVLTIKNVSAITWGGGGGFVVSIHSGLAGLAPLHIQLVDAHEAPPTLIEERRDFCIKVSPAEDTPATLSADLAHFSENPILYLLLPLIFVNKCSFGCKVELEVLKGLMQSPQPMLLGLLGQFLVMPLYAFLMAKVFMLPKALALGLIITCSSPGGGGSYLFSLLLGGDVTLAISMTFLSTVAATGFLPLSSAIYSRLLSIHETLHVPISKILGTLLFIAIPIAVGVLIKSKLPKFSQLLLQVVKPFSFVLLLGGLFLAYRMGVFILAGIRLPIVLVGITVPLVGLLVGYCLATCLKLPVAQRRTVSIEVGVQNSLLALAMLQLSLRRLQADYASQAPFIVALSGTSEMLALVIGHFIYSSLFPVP
UniProt Q5SVS4: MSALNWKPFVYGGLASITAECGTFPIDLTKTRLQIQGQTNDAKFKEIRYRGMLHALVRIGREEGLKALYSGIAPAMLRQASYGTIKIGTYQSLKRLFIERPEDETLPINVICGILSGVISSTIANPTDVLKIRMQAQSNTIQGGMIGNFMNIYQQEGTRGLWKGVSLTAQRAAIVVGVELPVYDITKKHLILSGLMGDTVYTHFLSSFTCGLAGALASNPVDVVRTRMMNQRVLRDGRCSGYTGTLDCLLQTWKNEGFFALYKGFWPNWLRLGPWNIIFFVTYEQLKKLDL
UniProt P78381: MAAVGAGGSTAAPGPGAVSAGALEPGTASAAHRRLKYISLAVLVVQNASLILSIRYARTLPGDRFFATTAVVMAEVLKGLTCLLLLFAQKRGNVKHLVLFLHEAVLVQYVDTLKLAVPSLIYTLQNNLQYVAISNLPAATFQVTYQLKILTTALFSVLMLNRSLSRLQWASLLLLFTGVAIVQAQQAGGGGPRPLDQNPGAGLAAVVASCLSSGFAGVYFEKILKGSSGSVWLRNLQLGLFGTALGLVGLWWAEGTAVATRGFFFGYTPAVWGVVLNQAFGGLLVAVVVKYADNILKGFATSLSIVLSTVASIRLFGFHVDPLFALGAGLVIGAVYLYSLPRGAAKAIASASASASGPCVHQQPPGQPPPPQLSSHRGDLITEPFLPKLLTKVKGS
UniProt Q8N8R3: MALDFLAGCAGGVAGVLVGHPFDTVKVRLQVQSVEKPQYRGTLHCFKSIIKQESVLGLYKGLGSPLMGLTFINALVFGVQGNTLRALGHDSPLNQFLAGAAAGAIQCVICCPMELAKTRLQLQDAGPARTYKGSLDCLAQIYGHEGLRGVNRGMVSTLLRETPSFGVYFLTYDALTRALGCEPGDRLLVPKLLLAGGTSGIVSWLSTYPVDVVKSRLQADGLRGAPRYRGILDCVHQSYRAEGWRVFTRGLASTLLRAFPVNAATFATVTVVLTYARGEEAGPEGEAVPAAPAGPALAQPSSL
UniProt Q9NY26: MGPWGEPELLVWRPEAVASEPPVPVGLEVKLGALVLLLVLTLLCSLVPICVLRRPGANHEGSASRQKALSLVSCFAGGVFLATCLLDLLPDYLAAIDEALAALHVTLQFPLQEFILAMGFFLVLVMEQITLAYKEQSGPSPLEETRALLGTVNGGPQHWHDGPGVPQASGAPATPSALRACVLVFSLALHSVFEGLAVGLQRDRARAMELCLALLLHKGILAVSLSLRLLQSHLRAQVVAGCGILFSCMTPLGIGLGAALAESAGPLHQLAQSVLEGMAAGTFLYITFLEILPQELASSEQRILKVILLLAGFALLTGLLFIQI
UniProt Q96BI1: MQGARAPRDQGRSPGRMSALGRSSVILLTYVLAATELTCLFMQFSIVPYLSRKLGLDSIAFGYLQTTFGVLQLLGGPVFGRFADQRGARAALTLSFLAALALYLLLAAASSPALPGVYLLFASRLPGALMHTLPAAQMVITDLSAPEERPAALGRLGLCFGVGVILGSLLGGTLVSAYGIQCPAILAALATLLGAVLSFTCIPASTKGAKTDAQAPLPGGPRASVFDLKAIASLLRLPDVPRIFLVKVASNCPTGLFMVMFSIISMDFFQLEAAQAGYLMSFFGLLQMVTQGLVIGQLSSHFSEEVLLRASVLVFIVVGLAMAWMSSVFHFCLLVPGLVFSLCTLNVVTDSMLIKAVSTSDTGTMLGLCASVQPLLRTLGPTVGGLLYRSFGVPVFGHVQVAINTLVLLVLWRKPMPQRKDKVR
UniProt Q3KQZ1: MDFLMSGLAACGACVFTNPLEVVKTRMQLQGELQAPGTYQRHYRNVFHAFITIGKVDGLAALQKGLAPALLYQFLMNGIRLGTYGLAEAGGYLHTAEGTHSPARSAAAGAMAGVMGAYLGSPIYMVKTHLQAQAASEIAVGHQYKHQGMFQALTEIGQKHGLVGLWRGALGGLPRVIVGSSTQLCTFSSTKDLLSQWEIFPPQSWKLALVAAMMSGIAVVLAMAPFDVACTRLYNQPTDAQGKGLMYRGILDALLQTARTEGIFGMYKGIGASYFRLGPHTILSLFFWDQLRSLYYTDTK
UniProt Q9BRV3: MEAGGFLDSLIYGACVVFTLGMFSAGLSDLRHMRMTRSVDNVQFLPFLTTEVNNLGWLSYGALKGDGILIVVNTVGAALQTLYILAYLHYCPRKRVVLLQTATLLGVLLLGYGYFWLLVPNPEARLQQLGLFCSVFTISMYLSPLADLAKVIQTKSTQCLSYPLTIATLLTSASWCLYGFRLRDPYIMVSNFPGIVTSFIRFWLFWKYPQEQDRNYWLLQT
UniProt Q8N755: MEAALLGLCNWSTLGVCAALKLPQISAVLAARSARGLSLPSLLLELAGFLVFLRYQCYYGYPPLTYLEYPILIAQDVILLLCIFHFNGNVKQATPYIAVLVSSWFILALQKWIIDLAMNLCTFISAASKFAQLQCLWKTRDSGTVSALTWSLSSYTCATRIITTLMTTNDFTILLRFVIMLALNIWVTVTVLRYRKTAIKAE
UniProt P48751: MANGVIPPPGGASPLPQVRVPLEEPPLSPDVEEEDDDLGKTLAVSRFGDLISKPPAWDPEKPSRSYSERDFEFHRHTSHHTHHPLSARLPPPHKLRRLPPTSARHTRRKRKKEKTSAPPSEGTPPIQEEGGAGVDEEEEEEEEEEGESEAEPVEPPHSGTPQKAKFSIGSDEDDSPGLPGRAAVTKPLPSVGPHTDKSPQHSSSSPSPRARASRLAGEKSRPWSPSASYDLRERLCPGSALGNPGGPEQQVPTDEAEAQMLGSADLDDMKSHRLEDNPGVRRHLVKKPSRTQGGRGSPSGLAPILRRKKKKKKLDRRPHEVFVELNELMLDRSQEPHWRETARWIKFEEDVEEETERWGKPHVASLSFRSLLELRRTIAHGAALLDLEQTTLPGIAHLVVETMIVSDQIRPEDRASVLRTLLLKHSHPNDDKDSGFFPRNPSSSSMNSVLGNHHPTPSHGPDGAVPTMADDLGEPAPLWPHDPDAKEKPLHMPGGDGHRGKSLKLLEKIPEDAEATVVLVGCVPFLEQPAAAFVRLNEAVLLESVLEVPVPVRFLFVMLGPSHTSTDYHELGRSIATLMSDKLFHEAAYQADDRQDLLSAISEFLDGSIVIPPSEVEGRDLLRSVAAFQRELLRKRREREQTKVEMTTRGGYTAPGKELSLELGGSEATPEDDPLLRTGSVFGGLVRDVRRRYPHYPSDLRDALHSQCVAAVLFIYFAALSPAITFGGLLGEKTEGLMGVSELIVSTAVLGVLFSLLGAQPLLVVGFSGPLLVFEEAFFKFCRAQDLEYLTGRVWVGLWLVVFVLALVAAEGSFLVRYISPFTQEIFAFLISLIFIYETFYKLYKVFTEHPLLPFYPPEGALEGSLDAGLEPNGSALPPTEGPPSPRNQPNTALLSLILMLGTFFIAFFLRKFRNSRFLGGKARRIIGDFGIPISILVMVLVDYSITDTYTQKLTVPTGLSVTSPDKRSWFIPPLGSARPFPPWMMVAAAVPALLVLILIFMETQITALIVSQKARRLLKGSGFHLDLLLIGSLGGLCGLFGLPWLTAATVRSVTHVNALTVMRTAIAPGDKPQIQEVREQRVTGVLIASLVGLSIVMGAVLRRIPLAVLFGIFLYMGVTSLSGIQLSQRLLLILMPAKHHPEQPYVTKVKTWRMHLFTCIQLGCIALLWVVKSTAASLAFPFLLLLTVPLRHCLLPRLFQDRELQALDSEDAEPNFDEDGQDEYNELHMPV
UniProt P78383: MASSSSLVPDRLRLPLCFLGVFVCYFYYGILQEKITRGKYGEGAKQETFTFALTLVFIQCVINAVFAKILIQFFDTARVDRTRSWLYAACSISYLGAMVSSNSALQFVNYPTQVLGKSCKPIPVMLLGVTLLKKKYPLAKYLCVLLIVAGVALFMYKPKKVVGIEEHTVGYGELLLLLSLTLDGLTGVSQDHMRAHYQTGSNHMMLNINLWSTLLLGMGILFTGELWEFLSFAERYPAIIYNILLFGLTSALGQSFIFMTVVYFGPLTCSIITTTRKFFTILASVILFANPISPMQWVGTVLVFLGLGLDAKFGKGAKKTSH
UniProt Q9NRA2: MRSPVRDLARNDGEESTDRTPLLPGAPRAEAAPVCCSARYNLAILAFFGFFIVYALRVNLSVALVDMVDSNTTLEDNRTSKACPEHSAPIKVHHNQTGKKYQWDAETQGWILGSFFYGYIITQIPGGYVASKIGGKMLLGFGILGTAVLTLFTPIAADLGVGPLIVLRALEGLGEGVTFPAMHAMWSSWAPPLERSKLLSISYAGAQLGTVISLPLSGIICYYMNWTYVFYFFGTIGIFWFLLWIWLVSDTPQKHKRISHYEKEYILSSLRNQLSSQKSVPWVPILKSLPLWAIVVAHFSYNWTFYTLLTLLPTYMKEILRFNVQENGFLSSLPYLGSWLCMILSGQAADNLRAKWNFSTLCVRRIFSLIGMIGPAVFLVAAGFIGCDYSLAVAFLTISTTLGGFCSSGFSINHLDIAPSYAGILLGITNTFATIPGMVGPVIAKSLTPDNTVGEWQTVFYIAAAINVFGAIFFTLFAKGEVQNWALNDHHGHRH
UniProt Q9HAB3: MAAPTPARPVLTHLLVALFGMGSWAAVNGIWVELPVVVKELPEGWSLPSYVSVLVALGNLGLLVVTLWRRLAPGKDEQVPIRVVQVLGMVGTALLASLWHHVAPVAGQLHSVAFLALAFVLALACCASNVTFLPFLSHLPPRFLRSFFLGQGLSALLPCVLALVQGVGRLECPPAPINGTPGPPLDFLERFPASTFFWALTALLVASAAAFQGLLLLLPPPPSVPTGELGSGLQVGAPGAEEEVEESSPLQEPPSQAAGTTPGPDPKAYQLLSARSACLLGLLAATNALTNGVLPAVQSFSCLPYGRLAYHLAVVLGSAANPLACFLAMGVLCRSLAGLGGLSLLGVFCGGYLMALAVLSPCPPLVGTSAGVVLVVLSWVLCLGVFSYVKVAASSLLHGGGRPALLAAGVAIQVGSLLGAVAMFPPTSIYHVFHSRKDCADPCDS
UniProt Q7Z2H8: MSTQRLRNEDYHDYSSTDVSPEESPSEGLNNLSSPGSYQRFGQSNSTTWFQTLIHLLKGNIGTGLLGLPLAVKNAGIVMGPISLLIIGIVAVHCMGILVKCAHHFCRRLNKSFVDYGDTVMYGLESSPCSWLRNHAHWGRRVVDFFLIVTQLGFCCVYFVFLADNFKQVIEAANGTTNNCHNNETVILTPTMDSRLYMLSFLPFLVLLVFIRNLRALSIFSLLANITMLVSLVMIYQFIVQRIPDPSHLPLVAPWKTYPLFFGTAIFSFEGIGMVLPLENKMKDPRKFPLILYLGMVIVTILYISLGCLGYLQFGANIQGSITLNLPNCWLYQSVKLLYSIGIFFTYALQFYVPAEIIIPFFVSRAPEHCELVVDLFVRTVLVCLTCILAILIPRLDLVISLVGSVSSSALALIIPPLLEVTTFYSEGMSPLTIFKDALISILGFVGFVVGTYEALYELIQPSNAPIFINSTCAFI

What was measured:
Assay in all cases: log2 fold change, soluble protein after heating vs DMSO (PISA); higher = thermal stabilisation; K562 cells, 10 uM, 30 min; active = over 0.2 and 3.5 SD of the protein, either way, in both replicates (recomputed)
erlotinib = compound: C#Cc1cccc(Nc2ncnc3cc(OCCOC)c(OCCOC)cc23)c1 [erlotinib]
In short: (§1)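 K562 cells at 2×10^6 cells/mL were treated for 30 min with 10 μM compound, and aliquots were heated for 3 min over 48°C-58°C before pooling. Extraction used PBS with 0.5% NP-40 at 4°C, and soluble protein was the supernatant after 21,000xg for 90 min, measured by TMTpro 16plex LC-MS/MS with channel sums equalised. Thermal stability values, relative to control samples and from duplicates, are log2 fold changes.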

[1] = compound: C1=CC(=CC=C1C2=NC3=C(N2)C=C(C=C3)C(=O)N)OC4=CC=C(C=C4)Cl
In short: as §1

[2] = compound: C1=CC2=NC=CN=C2C=C1/C=C/3\C(=O)NC(=O)S3
In short: as §1

[3] = compound: C1=CC=C(C=C1)C2=NC(=C(N2)C3=CC=NC=C3)C4=CC(=C(C=C4)Cl)O
In short: as §1

IRAK-1-4 Inhibitor I = compound: C1COCCN1CCN2C3=CC=CC=C3N=C2NC(=O)C4=CC(=CC=C4)[N+](=O)[O-] [IRAK-1-4 Inhibitor I]
In short: as §1

ibrutinib = compound: C=CC(=O)N1CCC[C@@H](n2nc(-c3ccc(Oc4ccccc4)cc3)c3c(N)ncnc32)C1 [ibrutinib]
In short: as §1

ralimetinib = compound: CC(C)(C)Cn1c(N)nc2ccc(-c3[nH]c(C(C)(C)C)nc3-c3ccc(F)cc3)nc21 [ralimetinib]
In short: as §1

[4] = compound: CC(C)C1=C2N=C(C=C(N2N=C1)NCC3=CC=CC=C3)NCCCCCCN
In short: as §1

[5] = compound: CC(C)C[C@@H](C=O)NC(=O)[C@H](CC(C)C)NC(=O)[C@H](CC(C)C)NC(=O)OCc1ccccc1
In short: as §1

pinometostat = compound: CC(C)N(C[C@H]1O[C@@H](n2cnc3c(N)ncnc32)[C@H](O)[C@@H]1O)[C@H]1C[C@@H](CCc2nc3cc(C(C)(C)C)ccc3[nH]2)C1 [pinometostat]
In short: as §1

[6] = compound: CC1=C(C(CC(=O)N1)C2=CC=C(C=C2)C(F)(F)F)C(=O)NC3=C(C=C4C(=C3)C=NN4)F
In short: as §1

[7] = compound: C1=CC(=C(C=C1Cl)C2=NC3=NC=CN=C3C(=N2)NC4=CC=NC=C4)F
In short: as §1

[8] = compound: C1CCN(C1)C(=O)NC2=CC=CC(=C2)NC3=NC=C(C(=N3)NCCC4=CN=CN4)Br
In short: as §1

[9] = compound: C1CN(CCC1(CC2=CC=C(C=C2)Cl)N)C3=NC=NC4=C3C=CN4
In short: as §1

[10] = compound: CC(C)(O)CC(=O)NCCn1ccc2ncnc(Nc3ccc(Oc4cccc(C(F)(F)F)c4)c(Cl)c3)c21
In short: as §1

[11] = compound: CC1=C(C2=C(C=C1)C(=O)C3=CC=CC=C3N2CCCN)C
In short: as §1

[12] = compound: C/C(=N\NC(=O)C1=CC(=CC=C1)S(=O)(=O)N2CCOCC2)/C3=C(C=CC(=C3)Cl)O
In short: as §1

[13] = compound: C1=CC2=C(C=CC(=C2)/C=C\3/C(=O)NC(=NCC4=CC=CS4)S3)N=C1
In short: as §1

[14] = compound: C1=CC=C2C(=C1)C3=NNC4=CC=CC(=C43)C2=O
In short: as §1

[15] = compound: CC(=O)c1cnc2ccc(-c3cc(Cl)c(O)c(Cl)c3)nc2c1N[C@H]1CC[C@H](CN(C)C)CC1
In short: as §1

Measured: log2 fold change

SLC48A1 (UniProt Q6P1K1)
inactive: erlotinib -0.07 | [1] 0.043 | [2] 0.001 | [3] -0.104 | IRAK-1-4 Inhibitor I 0.081 | ibrutinib 0.144 | ralimetinib 0.158 | [4] -0.467 | [5] -0.061 | pinometostat 0.156 | [6] -0.155

SLC25A28 (UniProt Q96A46)
inactive: [2] -0.04 | ibrutinib -0.051 | [6] -0.084

SLC10A3 (UniProt P09131)
inactive: erlotinib 0.071 | [7] -0.017 | [1] -0.063 | [2] 0.034 | [8] -0.096 | [9] 0.085 | ibrutinib -0.212 | [10] -0.088 | [4] -0.302 | [6] 0.186 | [11] -0.051

SLC3A2 (UniProt F5H867)
inactive: erlotinib 0.071 | [7] -0.003 | [1] 0.052 | [2] -0.003 | [8] -0.021 | [9] 0.08 | ibrutinib -0.031 | [10] -0.007 | [4] 0.015 | [6] -0.026 | [11] 0.012

SLC25A30 (UniProt Q5SVS4)
inactive: erlotinib -0.026 | [12] -0.028 | [1] 0.094 | [13] 0.026 | [3] -0.064 | [14] -0.03 | IRAK-1-4 Inhibitor I 0.25 | [15] 0.008 | ralimetinib -0.106 | [4] -0.059 | [5] 0.038 | pinometostat -0.067 | [6] 0.13

SLC27A6 (UniProt Q9Y2P4)
inactive: erlotinib 0.042 | [7] -0.296 | [1] -0.045 | [2] -0.03 | [3] 0.107 | [8] -0.053 | [9] 0 | ibrutinib 0.039 | ralimetinib 0.082 | [10] -0.134 | [4] -0.307 | [5] 0.001 | [6] 0.001 | [11] -0.074

SLC66A1 (UniProt Q6ZP29)
inactive: erlotinib 0.261 | [1] 0.004 | [2] 0.036 | ibrutinib 0.227 | [4] -0.122 | [6] -0.073

SLC35A2 isoform 4 (UniProt P78381)
inactive: [12] 0.107 | [7] -0.067 | [13] 0.133 | [2] 0.024 | [3] 0.049 | [14] -0.043 | [8] 0.007 | [9] 0.018 | IRAK-1-4 Inhibitor I 0.064 | ibrutinib -0.035 | [15] -0.254 | ralimetinib -0.154 | [10] -0.161 | [5] -0.07 | pinometostat -0.065 | [6] -0.007 | [11] 0.041

SLC41A1 (UniProt Q8IVJ1)
inactive: [7] 0.212 | [3] -0.207 | IRAK-1-4 Inhibitor I -0.189 | ralimetinib -0.116 | [10] -0.399 | [5] 0.031 | pinometostat -0.031 | [6] -0.039

SLC25A29 (UniProt Q8N8R3)
inactive: erlotinib -0.07 | [1] 0.374 | [3] 0.09 | [8] -0.105 | [9] 0.139 | IRAK-1-4 Inhibitor I 0.003 | ralimetinib 0.028 | [4] -0.165 | [5] 0.058 | pinometostat 0.029 | [11] -0.06

SLC66A2 (UniProt Q8N2U9)
inactive: erlotinib -0.085 | [7] -0.04 | [1] 0.102 | [2] 0.087 | ibrutinib 0.02 | [10] -0.056 | [4] 0.055 | [6] -0.092

SLC39A9 (UniProt Q9NUM3)
inactive: [8] -0.521 | [9] -0.099 | [11] 0.158

SLC43A3 (UniProt Q8NBI5)
inactive: [7] -0.07 | [10] -0.093

SLC22A23 (UniProt A1A5C7)
inactive: erlotinib 0.014 | [1] 0.045 | [3] -0.033 | IRAK-1-4 Inhibitor I -0.005 | ralimetinib -0.027 | [4] 0.147 | [5] 0.064 | pinometostat 0.032

SLC39A1 (UniProt Q9NY26)
inactive: erlotinib 0.123 | [1] 0.053
active: [4] -1.06

SLC26A11 (UniProt I3L0N9)
inactive: [2] 0.051 | ibrutinib -0.12

SLC22A18 (UniProt Q96BI1)
inactive: erlotinib -0.045 | [7] 0.017 | [1] -0.02 | [2] 0.016 | [3] -0.026 | [8] 0.007 | [9] 0.012 | IRAK-1-4 Inhibitor I -0.001 | ibrutinib 0.005 | ralimetinib 0.051 | [10] 0.077 | [4] -0.077 | [5] -0.017 | pinometostat -0.021 | [6] -0.034 | [11] 0.103

SLC25A35 (UniProt Q3KQZ1)
inactive: erlotinib 0.25 | [12] -0.003 | [1] 0.052 | [13] 0.041 | [14] 0.034 | [8] 0.006 | [9] -0.058 | IRAK-1-4 Inhibitor I 0.028 | [15] -0.198 | [4] 0.023 | pinometostat -0.02 | [11] 0.103

Reprinted from above (two entries):
SLC10A3 (UniProt P09131)
inactive: erlotinib 0.071 | [7] -0.017 | [1] -0.063 | [2] 0.034 | [8] -0.096 | [9] 0.085 | ibrutinib -0.212 | [10] -0.088 | [4] -0.302 | [6] 0.186 | [11] -0.051

SLC3A2 (UniProt F5H867)
inactive: erlotinib 0.071 | [7] -0.003 | [1] 0.052 | [2] -0.003 | [8] -0.021 | [9] 0.08 | ibrutinib -0.031 | [10] -0.007 | [4] 0.015 | [6] -0.026 | [11] 0.012

(further entries)

SLC50A1 (UniProt Q9BRV3)
inactive: erlotinib -0.148 | [12] 0.08 | [1] -0.211 | [13] 0.683 | [2] 0.13 | [3] -0.037 | [14] -0.138 | IRAK-1-4 Inhibitor I 0.07 | ibrutinib -0.065 | [15] 0.686 | ralimetinib -0.046 | [4] 0.02 | [5] 0.104 | pinometostat 0.033

SLC35E2B (UniProt P0CK96)
inactive: [2] 0.05 | [3] 0.124 | IRAK-1-4 Inhibitor I -0.019 | ibrutinib 0.009 | ralimetinib -0.095 | [5] -0.018 | pinometostat 0.012

SLC35D1 (UniProt Q9NTN3)
inactive: [12] 0.046 | [13] 0.03 | [14] 0.049 | [8] -0.085 | [9] 0.087 | [15] 0.002 | [11] 0.009

SLC66A3 (UniProt Q8N755)
inactive: erlotinib 0.12 | [7] 0.166 | [1] -0.015 | [10] 0.173 | [4] 0.08 | [6] 0.118

SLC35F5 (UniProt Q8WV83)
inactive: [7] 0.008 | [2] 0.222 | IRAK-1-4 Inhibitor I 0.143 | ibrutinib -0.408 | [10] -0.062 | pinometostat -0.153 | [6] 0.224

SLC22A4 (UniProt Q9H015)
inactive: [12] 0.056 | [7] 0.009 | [13] 0.034 | [3] 0.036 | [14] -0.034 | [8] -0.079 | [9] 0.041 | [15] -0.042 | ralimetinib -0.096 | [10] 0.021 | [5] 0.133 | [11] -0.064

SLC36A1 (UniProt E5RG64)
inactive: [2] -0.514 | ibrutinib 0.309

SLC4A3 isoform 3 (UniProt P48751)
inactive: [12] 0.053 | [13] 0.236 | [2] 0.066 | [14] 0.107 | ibrutinib -0.13 | [15] -0.129 | [6] 0.085

SLC35B1 isoform 2 (UniProt P78383)
inactive: erlotinib -0.024 | [7] -0.008 | [1] 0.127 | [2] 0.018 | [3] 0.085 | [8] -0.021 | [9] 0.271 | IRAK-1-4 Inhibitor I -0.067 | ibrutinib 0.09 | ralimetinib -0.184 | [10] -0.217 | [4] -0.04 | [5] 0.038 | pinometostat 0.065 | [11] 0.011

SLC17A5 (UniProt Q9NRA2)
inactive: erlotinib 0.035 | [12] 0.033 | [1] -0.015 | [13] 0.028 | [3] 0.046 | [14] -0.087 | IRAK-1-4 Inhibitor I -0.039 | [15] -0.042 | ralimetinib 0.07 | [4] -0.205 | [5] 0.086 | pinometostat -0.057

SLC35G1 (UniProt Q2M3R5)
inactive: [12] -0.085 | [13] 0.129 | [14] 0.049 | [8] -0.131 | [9] 0.071 | [15] -0.143 | [11] -0.06

SLC2A4 (UniProt P14672)
inactive: erlotinib -0.024 | [12] 0.014 | [1] 0.047 | [13] 0.035 | [2] 0.032 | [3] -0.219 | [14] 0.097 | [8] -0.037 | [9] -0.021 | ibrutinib 0.204 | [15] 0.077 | ralimetinib 0.097 | [4] -0.045 | [5] 0.449 | [6] -0.15 | [11] 0.09

SLC52A2 (UniProt Q9HAB3)
inactive: erlotinib -0.051 | [1] 0.01 | [2] 0.001 | [8] -0.364 | [9] -0.055 | ibrutinib 0.052 | [4] -0.209 | [6] -0.016 | [11] 0.166

SLC46A1 (UniProt Q96NT5)
inactive: erlotinib 0.094 | [12] -0.017 | [1] -0.054 | [13] -0.042 | [14] 0 | [8] -0.193 | [9] 0.091 | [15] -0.008 | [4] -0.04 | [11] -0.049

SLC36A1 (UniProt Q7Z2H8)
inactive: erlotinib 0.104 | [1] 0.1 | IRAK-1-4 Inhibitor I -0.005 | [4] -0.428 | pinometostat -0.1

SLC25A44 (UniProt Q96H78)
inactive: [12] -0.027 | [7] 0.051 | [13] 0.033 | [2] -0.036 | [14] -0.05 | [8] 0 | [9] 0.1 | IRAK-1-4 Inhibitor I 0.028 | ibrutinib 0.032 | [15] 0.021 | [10] 0.054 | pinometostat 0.003 | [6] 0.014 | [11] 0.039
